Data from publication PMC3702570.
Results are given in words; binding and its absence hold for the method and conditions named. Binding seen in cells or lysates may run through a third protein. Binding can be weak; no strength is given.

Sequences of proteins named here, by UniProt entry; tags and fusion partners are left off. A change or cut given only in a name is not applied to a line headed by its entry.
UniProt A9CGG6: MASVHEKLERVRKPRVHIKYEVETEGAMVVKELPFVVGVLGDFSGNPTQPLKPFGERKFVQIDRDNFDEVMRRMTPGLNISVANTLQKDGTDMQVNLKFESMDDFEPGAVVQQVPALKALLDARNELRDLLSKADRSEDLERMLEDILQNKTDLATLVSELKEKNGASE
UniProt A9CGG5: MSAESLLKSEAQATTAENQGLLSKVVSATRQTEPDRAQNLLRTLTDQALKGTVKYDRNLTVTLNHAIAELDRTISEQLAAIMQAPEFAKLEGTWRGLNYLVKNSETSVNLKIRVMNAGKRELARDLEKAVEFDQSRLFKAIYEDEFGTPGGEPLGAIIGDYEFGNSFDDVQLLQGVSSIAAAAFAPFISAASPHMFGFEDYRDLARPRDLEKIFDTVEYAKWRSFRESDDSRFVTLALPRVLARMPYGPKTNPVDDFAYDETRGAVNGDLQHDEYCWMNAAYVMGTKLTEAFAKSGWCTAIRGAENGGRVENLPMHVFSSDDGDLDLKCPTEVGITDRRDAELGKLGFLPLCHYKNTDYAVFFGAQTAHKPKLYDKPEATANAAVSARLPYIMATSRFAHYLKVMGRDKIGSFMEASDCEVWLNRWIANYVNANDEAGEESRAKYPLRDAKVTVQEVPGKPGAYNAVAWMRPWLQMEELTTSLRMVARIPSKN

Target: TssB-His (pET22b-TssB-His) (Agrobacterium tumefaciens C58) (UniProt A9CGG6)
Assay: pull-down; co-purification: pairs co-expressed in E. coli BL21(DE3), IPTG 0.5 mM at 25°C; soluble extract loaded on Ni-NTA column, His-tagged protein as bait; wash 50 mM NaH2PO4, 0.3 M NaCl, 25 mM imidazole, pH 8.0; elution 400 mM imidazole; western blot

## TssC41 (Atu4341), expressed without any fusion from pTrc-TssC41 (from UniProt A9CGG5)
  binding: binds
